# According to PubChem BioAssay AID2685 (National Center for Advancing Translational Sciences (NCATS), 2010):
# Some of the results follow. Further columns of the screen follow, without active or inactive calls. The list favours compounds with an active or inconclusive main result. Words in brackets tell the shape of the fitted curve; partial curves, single points and poor fits give uncertain potencies.
# Assay: qHTS Assay for Lipid Storage Modulators in Drosophila S3 Cells;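 for cell number change: cells counted by Cell Tracker Red CMTPX staining in the red channel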
# Conditions: BODIPY lipid droplet fluorescence, 18-24 h; for cell number change: measured here: cell count max response, cells fed with added oleic acid
# Procedure, shortened: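 Drosophila S3 cells got compounds at several concentrations plus oleic acid (400 uM solution). Laser-scanning cytometry with 488 nm excitation read lipid droplets at 500-530 nm and cells at 575-640 nm. Percent activity was relative to 20 uM Triacsin C.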
# [1] = measured here: cell number channel AC50, cells fed with added oleic acid
# [2] = measured here: lipid fluorescence (Fed channel) AC50, cells fed with added oleic acid
Compound,cell number change [%],AC50 [1],AC50 [2]
Cn1ccc2cc3c(cc21)CCN3C(=O)Nc1cccnc1,30.1,"6.51 µM [rising, single point]","1.16 µM [rising, full curve]"
CCN(CC)c1ccc(/C=N/NC(=O)CCC(=O)NCc2ccccc2)c(O)c1,-19,"0.013 µM [falling, full curve]","6.51 µM [falling, partial curve]"
Nc1nnc(CC(=O)N/N=C/c2ccc(-c3ccc(F)cc3)o2)s1,34.1,"13 µM [rising, partial curve, poor fit]","13 µM [rising, partial curve]"
Cc1cccc(-n2c(C)cc(/C=N/NC(=O)c3cccc([N+](=O)[O-])c3C)c2C)c1,1.21,,"6.51 µM [falling, single point]"
O=C(c1ccc(CS(=O)(=O)c2ccccc2)o1)N1CCN(c2ccccc2)CC1,14.9,,
CCSc1nnc(NC(=O)c2cc(OC)c(OC)c(OC)c2)s1,-17.4,,
CC(=O)Nc1ccc(C(=O)CCl)cc1,-84.4,"5.17 µM [falling, partial curve]","0.651 µM [falling, single point]"
COc1ccc(CNC(=O)c2ccc(Br)o2)cc1,30.2,"9.2 µM [rising, partial curve]",
CC(=O)NC1(C2CCCCC2=O)CCCCC1 (stereo not drawn),5.89,,
COc1cccc(/C=C2\Oc3cc(OCC(=O)N4Cc5ccccc5C[C@H]4C(=O)O)ccc3C2=O)c1,-23.5,,
COc1cccc(N2CCN(c3ccc4nnc(CCC(=O)Nc5ccccn5)n4n3)CC2)c1,-20.9,,"29.1 µM [falling, single point]"
O=C(NNS(=O)(=O)c1ccc(Br)cc1)c1sccc1-n1cccc1,-30.6,,"14.6 µM [falling, partial curve]"
Cc1ccc(-c2cn3nc(-c4ccccc4)c(-c4ccccc4)nc3n2)cc1,14.9,,"1.84 µM [rising, partial curve, poor fit]"
C=CCNc1sc(C(=O)C(C)(C)C)c(N)c1C#N,,"6.51 µM [rising, single point]",
CC1(C)Cc2cccc(OCC(=O)Nc3cc(S(C)(=O)=O)ccc3Cl)c2O1,-13.4,,"0.0164 µM [falling, full curve, poor fit]"
Cc1ccc(C)c(CN2CCC(CNC(=O)Nc3ccc(Br)cc3F)CC2)c1,-61.4,"29.1 µM [falling, single point]","6.51 µM [rising, partial curve]"
Cc1ccc(C)n1N1C(=O)/C(=C\c2ccc(Cl)cc2)SC1=S,-45.4,"23.1 µM [falling, single point]","29.1 µM [falling, single point]"
CN1C(=O)c2cccc3c(N(C)C)ccc(c23)C1=O,4.05,,"23.1 µM [falling, partial curve]"
O=C(O)CSc1nnc(C2COc3ccccc3O2)n1-c1ccccc1 (stereo not drawn),61.7,"29.1 µM [rising, single point]",
CC(=O)Nc1ccc(/C=N/NC(=O)CNC(=O)c2ccccc2)cc1,-0.78,,
Cc1cc(C(=O)CSc2nnc(-c3ccco3)o2)c(C)n1Cc1ccco1,-35.3,,

# A draw from above in order of count of non-hydrogen atoms, largest number first:
Compound,cell number change [%],AC50 [1],AC50 [2]
Cc1cccc(-n2c(C)cc(/C=N/NC(=O)c3cccc([N+](=O)[O-])c3C)c2C)c1,1.21,,"6.51 µM [falling, single point]"
Cc1ccc(C)n1N1C(=O)/C(=C\c2ccc(Cl)cc2)SC1=S,-45.4,"23.1 µM [falling, single point]","29.1 µM [falling, single point]"
CN1C(=O)c2cccc3c(N(C)C)ccc(c23)C1=O,4.05,,"23.1 µM [falling, partial curve]"

# Next entries follow:

Compound,cell number change [%],AC50 [1],AC50 [2]
CC(C)(C)C(=O)Nc1ccc2oc(-c3cc(F)c(F)cc3Cl)nc2c1,-27.9,,"2.59 µM [rising, partial curve]"
CCCn1cc(SCC(=O)NCC2CCCO2)c2ccccc21 (stereo not drawn),13,"0.461 µM [falling, full curve, poor fit]","0.411 µM [falling, full curve]"
COc1ccc(CCN2CC34C=CC(O3)C(C(=O)NCc3ccccc3)C4C2=O)cc1OC (stereo not drawn),-23.4,,"0.103 µM [falling, full curve, poor fit]"
Cc1cccc(NC(=O)C2CCC(CNC(=O)[C@@H]3Cc4ccccc4CN3)CC2)c1 (stereo partly drawn),15.8,,"0.103 µM [rising, partial curve, poor fit]"
Cc1cnc(C(=O)NCCc2ccc(Cl)cc2)cn1,8.78,,"20.6 µM [rising, partial curve]"
COc1ccc(/C=N/NC(=O)C(=O)N2CCCCCC2)cc1[N+](=O)[O-],14.9,,
CCCCNS(=O)(=O)c1ccc2nc(-c3cccnc3)cc(C(=O)NC3CC3)c2c1,,,"0.651 µM [rising, full curve, poor fit]"
O=C(CC(SCCO)c1ccc2c(c1)OCO2)c1ccco1 (stereo not drawn),246,"6.51 µM [rising, partial curve]","0.651 µM [rising, single point]"
CC1(C)CC(=O)C2=C(C1)OC(N)=C(C#N)C2c1ccoc1 (stereo not drawn),35,"0.651 µM [rising, full curve, poor fit]","1.03 µM [rising, full curve]"
CC1CC(C)CN(C(=O)COC(=O)CNS(=O)(=O)/C=C/c2ccccc2)C1 (stereo not drawn),-8.98,,"29.1 µM [falling, partial curve]"
Fc1ccc(-c2csc3nnc(SCc4cccnc4)n23)cc1,,"2.91 µM [rising, partial curve]","0.13 µM [rising, full curve, poor fit]"
O=C(NN=C1CCCCC1)c1cc(-c2ccccc2)n[nH]1,-6.51,,"2.06 µM [rising, partial curve, poor fit]"
Cc1cccc(Nc2nnc(-c3ccc(C(=O)N4C[C@H]5C[C@H](C4)c4cccc(=O)n4C5)cc3)c3ccccc23)c1,,,"0.58 µM [rising, single point]"
COc1ccc(-c2csc3nc(-c4cccnc4)nc(N4CCC(C(N)=O)CC4)c23)cc1OC,,,"0.92 µM [rising, full curve]"
Cc1ccc(NC(=O)CSCc2ccco2)cc1,37.9,"29.1 µM [rising, single point]",
O=c1oc2cc(O)ccc2cc1-c1nc2c(s1)CCc1ccccc1-2,27.4,"1.84 µM [rising, partial curve, poor fit]",
Cc1ccccc1CNC(=O)CN1C(=O)c2ccccc2S1(=O)=O,-7.89,,
Clc1ccc(C2Nc3cccc4cccc(c34)N2)cc1,-19.2,,"0.517 µM [rising, single point]"
O=C(CNCc1ccccc1)Nc1ccc(Cl)cc1,6.2,,"1.16 µM [rising, full curve, poor fit]"
CC1CN(CC(=O)Nc2cccc(C(=O)Nc3cccc(C(F)(F)F)c3)c2)CC(C)O1 (stereo not drawn),76.5,"9.2 µM [rising, partial curve]","4.11 µM [rising, partial curve, poor fit]"
CC(=O)Nc1cc(S(=O)(=O)C(F)(F)F)ccc1Cl,14.5,,"9.2 µM [rising, partial curve]"

Compound,cell number change [%],AC50 [1],AC50 [2]
Cc1ccc2[nH]c3c(c2c1)SC(C)(C)CC3=O,-17.7,,
CCOc1ccccc1OCCN1CCCC1,18.2,,"32.6 µM [rising, single point]"
CCN(CC)S(=O)(=O)c1cc(C(=O)O)c(Cl)cc1Cl,-10.7,,
CCOc1ccc(OCC)c(NS(=O)(=O)c2cn(C)cn2)c1,,"6.51 µM [falling, single point]",
Cc1cccn2c(=O)c3cc(C(=O)NCCN4CCOCC4)n(C)c3nc12,-9.73,,"1.64 µM [rising, partial curve]"
COc1ccc(C(=O)N2CCCC(CCC(=O)NCc3ccc(F)c(F)c3)C2)o1 (stereo not drawn),-23,,"6.51 µM [falling, full curve, poor fit]"
Cc1ccc(NC(=O)C(=O)NCCN2CCN(C(=S)Nc3ccccc3)CC2)cc1,4.95,,"2.91 µM [rising, single point]"
NC(=O)C1CCN(C(=O)C2CC(=O)N(c3ccc(F)cc3)C2)CC1 (stereo not drawn),9.83,,
Cn1c(=O)c2c(ncn2CCNC2=NCCCCC2)n(C)c1=O,-12.6,,"0.00461 µM [falling, full curve, poor fit]"
COc1cccc(NC(=O)C2CCC2)c1,17.6,,"6.51 µM [rising, partial curve, poor fit]"
N/C(=N\OC(=O)Nc1ccc(Cl)c(Cl)c1)c1ncc(C(F)(F)F)cc1Cl,4.12,,
COc1ccc(C(C)=O)cc1COc1ncnc2ccccc12,37.2,"0.058 µM [rising, full curve, poor fit]","2.31 µM [rising, partial curve, poor fit]"
Cc1ccc(CC(=O)N2CCOCC2)cc1,-2.46,,"9.2 µM [falling, single point]"
CCc1ccc(N(CC(=O)N2CCOCC2)S(C)(=O)=O)cc1,4.01,,"29.1 µM [falling, single point]"
CCc1cc(CNC(=O)CCc2nnc(Cc3cccc(C)c3)o2)on1,-17.7,,"16.4 µM [falling, single point]"
COc1ccc(CNC(=O)CSc2nnc3c(n2)[nH]c2ccc(C)cc23)cc1,1.74,,"6.51 µM [falling, single point]"
COc1cccc(C(=O)N2CCN(C3CCN(Cc4ccccc4)CC3)CC2)c1,-6.83,,
Cc1ccc2sc3ccc(NC(=O)c4ccccc4Cl)cc3c(=O)c2c1,18.4,,"29.1 µM [falling, single point]"
CCCS(=O)(=O)N1CCN(Cc2ccccc2C(F)(F)F)CC1,-11.3,,
O=C(Nc1cccc(F)c1)N1CCC(c2ccccc2)CC1,11.3,"0.231 µM [rising, full curve, poor fit]",
CC(=O)Oc1ccc(C(=O)[C@H]2[C@H]3C(=O)N(c4ccc(C)cc4C)C(=O)[C@H]3[C@@H]3C=CC=NN32)cc1,17.7,,"0.0058 µM [rising, full curve, poor fit]"

# Reprinted at random: 2 records from the list, in no set order.
Compound,cell number change [%],AC50 [1],AC50 [2]
Cc1ccc(NC(=O)C(=O)NCCN2CCN(C(=S)Nc3ccccc3)CC2)cc1,4.95,,"2.91 µM [rising, single point]"
Cc1ccc(CC(=O)N2CCOCC2)cc1,-2.46,,"9.2 µM [falling, single point]"
